Assay results reported in patent US11058702B2 (EMEK, Inc., priority 2014, dated 2021).
“Also recorded” adds a separate entry of the source. Read-outs that look alike come from different tables or passages of the source. For some of these results: At least one structure is not confirmed: it was looked up by name or label, or the drawing left a doubt. Some entries share one result that the patent states for a list of compounds.

Tests used:
[1] = tested on: cellular DNA of HCT-116, HT-29, U251 xenografts, bone marrow, intestine, liver; conditions: po
high-grade gliomas = conditions: cited from earlier work; for median survival: surgery, concomitant RT+TMZ, adjuvant TMZ

SMILES: O=c1[nH]c(=O)n([C@H]2C[C@H](O)[C@@H](CO)O2)cc1I [IUdR, 5-iodo-2′-deoxyuridine]
- % IUdR-DNA incorporation in normal liver [1]: < 1%

SMILES: Cn1nnc2c(C(N)=O)ncn2c1=O [TMZ, temozolomide]
- median survival (high-grade gliomas; AA): ≈ 3.4 years
- median survival (high-grade gliomas; GBM): 14-18 months
- biochemical and molecular interactions of TMZ+RT (high-grade gliomas; human, in vivo): only additive
- survival benefit of RT+TMZ compared to RT alone (high-grade gliomas; methylated MGMT): 5 month
- survival with RT+TMZ (high-grade gliomas; methylated MGMT): 15 months
- survival advantage of RT+TMZ compared to RT alone (high-grade gliomas; unmethylated MGMT GBM): no survival benefit; also recorded: No survival advantage
